{
  "sequences": {"note": "Amino acid sequences for entries named in this document (tags omitted).", "UniProt P58418, whole entry N48K": "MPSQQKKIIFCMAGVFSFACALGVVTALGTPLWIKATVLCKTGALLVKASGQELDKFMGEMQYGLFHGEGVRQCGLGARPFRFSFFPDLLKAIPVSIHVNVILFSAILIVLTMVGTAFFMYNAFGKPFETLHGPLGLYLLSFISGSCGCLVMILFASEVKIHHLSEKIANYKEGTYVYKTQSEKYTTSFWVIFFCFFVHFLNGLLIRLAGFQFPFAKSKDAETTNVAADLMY"},
  "source": "patent US9783545B2",
  "about": "“Pyrazolopyridazines and methods for treating retinal-degenerative diseases and hearing loss associated with usher syndrome” (Usher III Initiative, Inc., priority 2012, dated 2017)",
  "target": "N48K Clarin-1 (Homo sapiens, UniProt P58418, N48K)",
  "test": "Restoration of expression of N48K Clarin-1, 24 hour incubation (high content imaging of HA-tagged N48K Clarin-1)",
  "conditions": "HEK293-Clarin-1 N48K-HA D9 cell line, 24 hr incubation with compound",
  "experimental": "Assay Method Showing Activity of Compounds of the Invention that Restore Expression of N48K Clarin-1 (24 hour incubation)\nClarin-1 is the protein encoded by the gene mutated in Usher III Syndrome (Adato et al., 2002). The most prevalent mutation in Clarin-1 in North America is N48K, which is reported to cause loss of glycosylation and a trafficking defect (Tian et al., 2009). […] Thus it is believed that restoring the trafficking of N48K Clarin-1 to the cell surface provides an avenue of intervention for Usher III Sydrome. […]\nThe HA-tagged N48K Clarin-1 was detected with an antibody against the HA tag (HA.11 Clone 16B12 Monoclonal antibody, Covance #MMS-101P) at a dilution of 1:1000 in PBS containing Triton X-100. […] The imaging of the stained cells was performed on an InCell 1000 High Content Imager (GE Healthcare), reading out the Cy3 channel for N48K Clarin-1 and the DAPI channel for nuclei. The images were analyzed and quantitated using a specific algorithm. This algorithm measured the HA-Clarin-1 staining for each cell based on the additional nuclear segmentation of the DAPI signal (FIG. 1). This algorithm measured the intensity per cell, and thus it is less sensitive for variation in cell number. Per well, approximately 2,000 cells were measured to achieve an average density per cell measurement. […]",
  "note": "Structures were worked out from names or drawings and are uncertain.",
  "data": [
    {"smiles": "OCCn1nc(-c2cccnc2)c2c(Cl)c(-c3ccccc3)nnc21", "values": [
      {"measurement": "EC50", "result": "< 2", "unit": "µM"}
    ]}
  ]
}
